For at least one compound, name, drawing or mass did not settle the structure.
Test system: lucid dreaming
Conditions: rivastigmin 6-12 mg dose; galantamine 8-16 mg
Excerpt: These include: 1. Using a cholinergic agonist (e.g., nicotine).

`COc1ccc2c3c1O[C@H]1C[C@@H](O)C=C[C@@]31CCN(C)C2` [galantamine] was tested, and the “efficacy compared with Aricept” value was “work as well as”.
